These are yes or no findings as the source states them, for the method shown. In cells and extracts the contact can be indirect. Some results given as binding are weak or reduced against the parent protein; the word gives no strength.
B1: a2N-12 (peptide)
peptide: ETGEVIKWYVFLISFWC
modifications: N-terminal biotin tag
B2: a2N-22 (peptide)
peptide: YGVGSYREVNPALFTIIC
modifications: N-terminal biotin tag
B3: a2N-18 (peptide)
peptide: NMCSFDVTNKCLIAEVWCPC
modifications: N-terminal biotin tag
B4: a2N-11 (peptide)
peptide: GYTIVTYAELDECLEDPC
modifications: N-terminal biotin tag
B5: a2N-03 (peptide)
peptide: VQFRDLNQNVSSFQRC
modifications: N-terminal biotin tag
B6: a2N-01 (peptide)
peptide: MGSLFRSESMCLAQLFLC
modifications: N-terminal biotin tag

Amino acid sequences for entries named in this document (tags omitted).
UniProt Q99418: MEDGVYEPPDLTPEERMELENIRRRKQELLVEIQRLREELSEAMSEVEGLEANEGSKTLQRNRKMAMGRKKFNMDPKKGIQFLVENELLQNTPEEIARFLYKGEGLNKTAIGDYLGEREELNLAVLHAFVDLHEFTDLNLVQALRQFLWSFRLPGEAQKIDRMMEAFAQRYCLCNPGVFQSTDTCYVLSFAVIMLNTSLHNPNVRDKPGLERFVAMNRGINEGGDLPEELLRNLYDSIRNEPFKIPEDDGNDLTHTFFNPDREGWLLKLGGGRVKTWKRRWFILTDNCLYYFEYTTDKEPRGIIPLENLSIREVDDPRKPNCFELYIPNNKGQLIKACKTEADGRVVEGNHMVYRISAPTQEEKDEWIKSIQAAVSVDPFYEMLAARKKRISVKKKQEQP

Target: GST-ARNO(wt) (human) (UniProt Q99418)
Assay: peptide pull-down on streptavidin beads, anti-GST Western blot

binding, binds:
B1
B2
B3
B4
B5
B6

Target: GST-ARNO(wt) (human) (UniProt Q99418)
Assay: peptide pull-down; asterisk marks interacting peptides

binding, binds:
B1
B2
B3
B4
B5
B6

Target: GST-ARNO(wt) (human) (UniProt Q99418)
Assay: peptide pull-down: biotinylated peptide on streptavidin beads, purified GST-ARNO(wt) in solution, Western blot with anti-GST antibody

binding, binds:
B1
B2
B3
B4
B5
B6

Target: GST-ARNO(wt) (human) (UniProt Q99418)
Assay: peptide pull-down: biotinylated peptide on streptavidin beads, GST-ARNO(wt) in solution, Western blot with anti-GST antibody; beads without peptide as blank

binding, binds:
B1
B2
B3
B4
B5
B6

Reference: patent US20140162285A1, “Methods of Modulating Vesicular Trafficking” (The General Hospital Corporation, priority 2009, published 2014)
